Publication doi:10.1101/2024.08.06.606614 (bioRxiv, 2024)
Read-outs that look alike come from different tables or passages of the source. No constants are given. Whether binding was seen depends on the method and setting. Some entries that bind do so weakly or less than the wild type.

Amino acid sequences for entries named in this document (tags omitted).
UniProt Q80W93: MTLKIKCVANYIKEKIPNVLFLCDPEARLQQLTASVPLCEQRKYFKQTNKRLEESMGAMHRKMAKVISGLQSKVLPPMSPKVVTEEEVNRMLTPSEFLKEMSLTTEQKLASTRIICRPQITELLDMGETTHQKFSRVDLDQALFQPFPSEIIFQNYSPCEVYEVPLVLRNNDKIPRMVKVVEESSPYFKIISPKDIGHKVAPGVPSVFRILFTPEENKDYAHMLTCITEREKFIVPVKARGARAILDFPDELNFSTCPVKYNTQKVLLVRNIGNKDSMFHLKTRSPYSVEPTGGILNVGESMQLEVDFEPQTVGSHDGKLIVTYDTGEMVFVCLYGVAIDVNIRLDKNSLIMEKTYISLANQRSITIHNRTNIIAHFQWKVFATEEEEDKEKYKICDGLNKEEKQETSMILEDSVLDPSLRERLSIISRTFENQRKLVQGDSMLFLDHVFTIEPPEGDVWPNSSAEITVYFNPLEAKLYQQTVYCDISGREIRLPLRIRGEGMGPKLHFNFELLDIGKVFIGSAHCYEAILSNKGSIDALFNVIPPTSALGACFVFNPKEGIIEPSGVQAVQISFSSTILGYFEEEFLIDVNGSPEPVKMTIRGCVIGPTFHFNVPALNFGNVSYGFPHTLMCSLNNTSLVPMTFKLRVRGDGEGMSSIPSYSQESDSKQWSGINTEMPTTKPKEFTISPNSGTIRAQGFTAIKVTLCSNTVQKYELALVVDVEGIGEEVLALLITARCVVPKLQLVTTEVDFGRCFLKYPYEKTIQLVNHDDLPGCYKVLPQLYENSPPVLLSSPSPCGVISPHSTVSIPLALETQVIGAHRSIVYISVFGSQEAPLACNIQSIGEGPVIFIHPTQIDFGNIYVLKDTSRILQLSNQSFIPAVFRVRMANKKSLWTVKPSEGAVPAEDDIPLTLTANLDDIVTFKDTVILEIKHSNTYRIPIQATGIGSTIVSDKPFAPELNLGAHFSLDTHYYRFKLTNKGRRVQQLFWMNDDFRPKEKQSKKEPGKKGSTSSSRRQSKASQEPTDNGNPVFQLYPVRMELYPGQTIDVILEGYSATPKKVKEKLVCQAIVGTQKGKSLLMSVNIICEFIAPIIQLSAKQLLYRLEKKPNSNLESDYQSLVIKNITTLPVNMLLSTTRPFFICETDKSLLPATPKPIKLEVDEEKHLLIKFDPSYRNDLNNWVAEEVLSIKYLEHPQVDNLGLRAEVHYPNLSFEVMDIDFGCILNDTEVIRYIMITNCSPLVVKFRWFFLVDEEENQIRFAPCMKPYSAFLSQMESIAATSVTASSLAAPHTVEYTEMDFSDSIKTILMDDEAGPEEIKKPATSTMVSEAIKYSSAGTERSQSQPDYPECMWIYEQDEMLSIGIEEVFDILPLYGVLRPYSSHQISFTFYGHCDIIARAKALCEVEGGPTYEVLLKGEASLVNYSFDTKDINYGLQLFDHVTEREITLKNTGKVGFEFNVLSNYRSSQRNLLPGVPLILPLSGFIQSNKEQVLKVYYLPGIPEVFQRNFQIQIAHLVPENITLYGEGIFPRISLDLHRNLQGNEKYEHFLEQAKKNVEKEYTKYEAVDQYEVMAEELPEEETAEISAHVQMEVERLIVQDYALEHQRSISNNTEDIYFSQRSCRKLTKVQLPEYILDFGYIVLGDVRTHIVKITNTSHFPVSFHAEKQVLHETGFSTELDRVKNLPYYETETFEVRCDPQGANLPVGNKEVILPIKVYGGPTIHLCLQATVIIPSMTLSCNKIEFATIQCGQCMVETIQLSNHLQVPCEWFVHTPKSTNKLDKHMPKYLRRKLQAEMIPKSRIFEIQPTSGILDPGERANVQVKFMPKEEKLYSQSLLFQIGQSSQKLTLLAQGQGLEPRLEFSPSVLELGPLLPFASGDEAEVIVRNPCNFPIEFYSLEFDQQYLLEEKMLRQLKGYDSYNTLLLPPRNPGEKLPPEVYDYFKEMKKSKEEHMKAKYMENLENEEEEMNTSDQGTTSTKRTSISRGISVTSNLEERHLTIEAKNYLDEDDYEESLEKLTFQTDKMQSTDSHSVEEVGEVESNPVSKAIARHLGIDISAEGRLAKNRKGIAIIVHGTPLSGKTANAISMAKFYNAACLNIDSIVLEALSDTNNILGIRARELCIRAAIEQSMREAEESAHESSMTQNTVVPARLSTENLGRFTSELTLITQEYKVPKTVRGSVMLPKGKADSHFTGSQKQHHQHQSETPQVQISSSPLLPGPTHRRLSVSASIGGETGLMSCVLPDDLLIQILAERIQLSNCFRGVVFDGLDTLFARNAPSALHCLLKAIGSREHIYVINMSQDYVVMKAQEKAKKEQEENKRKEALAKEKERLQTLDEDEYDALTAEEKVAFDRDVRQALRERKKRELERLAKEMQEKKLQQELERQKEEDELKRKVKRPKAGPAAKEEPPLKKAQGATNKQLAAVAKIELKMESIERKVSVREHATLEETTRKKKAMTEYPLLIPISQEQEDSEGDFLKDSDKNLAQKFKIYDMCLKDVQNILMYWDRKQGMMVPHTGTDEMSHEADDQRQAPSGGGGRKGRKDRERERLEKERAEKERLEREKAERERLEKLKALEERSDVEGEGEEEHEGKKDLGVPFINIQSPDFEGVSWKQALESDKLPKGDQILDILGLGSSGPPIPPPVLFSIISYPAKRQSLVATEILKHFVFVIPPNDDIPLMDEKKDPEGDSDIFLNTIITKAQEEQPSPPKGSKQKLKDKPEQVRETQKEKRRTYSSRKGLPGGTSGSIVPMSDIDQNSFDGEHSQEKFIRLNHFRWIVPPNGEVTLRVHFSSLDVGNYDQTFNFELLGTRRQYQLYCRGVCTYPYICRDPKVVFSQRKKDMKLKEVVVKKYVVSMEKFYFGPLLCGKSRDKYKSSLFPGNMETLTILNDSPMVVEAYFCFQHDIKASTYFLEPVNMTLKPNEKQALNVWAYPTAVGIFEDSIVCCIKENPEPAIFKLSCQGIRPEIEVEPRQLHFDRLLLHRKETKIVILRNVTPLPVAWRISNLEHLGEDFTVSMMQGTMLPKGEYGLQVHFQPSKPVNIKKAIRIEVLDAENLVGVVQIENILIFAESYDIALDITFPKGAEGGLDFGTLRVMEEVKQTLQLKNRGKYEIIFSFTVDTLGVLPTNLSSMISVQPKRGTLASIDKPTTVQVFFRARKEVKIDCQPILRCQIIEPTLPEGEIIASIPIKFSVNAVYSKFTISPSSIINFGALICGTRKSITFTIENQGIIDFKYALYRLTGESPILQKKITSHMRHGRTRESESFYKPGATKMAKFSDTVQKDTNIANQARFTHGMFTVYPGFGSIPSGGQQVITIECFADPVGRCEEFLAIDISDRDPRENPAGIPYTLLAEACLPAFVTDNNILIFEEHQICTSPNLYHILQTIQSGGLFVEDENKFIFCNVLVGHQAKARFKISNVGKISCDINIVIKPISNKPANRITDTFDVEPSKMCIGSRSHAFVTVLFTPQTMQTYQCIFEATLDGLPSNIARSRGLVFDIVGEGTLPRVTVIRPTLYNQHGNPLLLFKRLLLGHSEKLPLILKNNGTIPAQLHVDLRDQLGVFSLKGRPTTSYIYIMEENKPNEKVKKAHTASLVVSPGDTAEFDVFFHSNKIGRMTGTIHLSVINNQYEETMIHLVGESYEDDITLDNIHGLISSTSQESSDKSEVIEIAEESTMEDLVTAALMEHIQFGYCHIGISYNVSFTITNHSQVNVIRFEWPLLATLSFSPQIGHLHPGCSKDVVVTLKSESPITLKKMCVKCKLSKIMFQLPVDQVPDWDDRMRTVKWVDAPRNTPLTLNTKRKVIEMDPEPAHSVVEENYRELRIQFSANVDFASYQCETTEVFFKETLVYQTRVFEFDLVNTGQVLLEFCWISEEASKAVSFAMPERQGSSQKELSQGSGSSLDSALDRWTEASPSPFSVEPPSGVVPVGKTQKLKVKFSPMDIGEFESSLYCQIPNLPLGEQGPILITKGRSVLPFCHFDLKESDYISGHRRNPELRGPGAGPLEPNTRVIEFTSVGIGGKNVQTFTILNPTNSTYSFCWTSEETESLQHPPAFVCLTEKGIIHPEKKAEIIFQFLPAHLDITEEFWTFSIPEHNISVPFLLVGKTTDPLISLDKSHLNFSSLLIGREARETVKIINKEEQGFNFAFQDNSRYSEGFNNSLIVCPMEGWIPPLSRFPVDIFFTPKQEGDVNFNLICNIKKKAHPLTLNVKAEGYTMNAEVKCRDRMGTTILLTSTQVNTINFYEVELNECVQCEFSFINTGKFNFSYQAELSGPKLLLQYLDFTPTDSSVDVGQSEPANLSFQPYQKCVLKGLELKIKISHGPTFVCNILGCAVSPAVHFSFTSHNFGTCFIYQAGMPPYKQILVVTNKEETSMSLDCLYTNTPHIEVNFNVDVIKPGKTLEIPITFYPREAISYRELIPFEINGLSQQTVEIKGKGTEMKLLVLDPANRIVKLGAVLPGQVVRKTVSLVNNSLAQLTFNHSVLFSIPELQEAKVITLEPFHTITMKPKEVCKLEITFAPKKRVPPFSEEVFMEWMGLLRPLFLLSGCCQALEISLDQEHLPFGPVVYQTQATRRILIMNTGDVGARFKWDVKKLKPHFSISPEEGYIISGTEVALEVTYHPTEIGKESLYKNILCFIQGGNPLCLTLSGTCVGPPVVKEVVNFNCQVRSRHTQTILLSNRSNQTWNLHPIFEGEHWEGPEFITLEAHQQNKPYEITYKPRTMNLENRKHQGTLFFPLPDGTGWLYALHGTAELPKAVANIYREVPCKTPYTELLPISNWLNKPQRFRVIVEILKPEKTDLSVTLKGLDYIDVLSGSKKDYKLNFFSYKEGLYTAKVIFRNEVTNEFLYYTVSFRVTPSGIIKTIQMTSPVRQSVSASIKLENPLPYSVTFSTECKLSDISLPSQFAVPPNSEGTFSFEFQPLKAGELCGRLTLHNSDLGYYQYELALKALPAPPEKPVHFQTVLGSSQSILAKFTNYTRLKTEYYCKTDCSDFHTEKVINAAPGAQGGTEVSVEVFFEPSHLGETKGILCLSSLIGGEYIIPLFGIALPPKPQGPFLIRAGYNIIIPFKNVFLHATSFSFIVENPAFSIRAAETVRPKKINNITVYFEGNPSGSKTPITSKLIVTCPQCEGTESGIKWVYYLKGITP
UniProt Q8K3V1: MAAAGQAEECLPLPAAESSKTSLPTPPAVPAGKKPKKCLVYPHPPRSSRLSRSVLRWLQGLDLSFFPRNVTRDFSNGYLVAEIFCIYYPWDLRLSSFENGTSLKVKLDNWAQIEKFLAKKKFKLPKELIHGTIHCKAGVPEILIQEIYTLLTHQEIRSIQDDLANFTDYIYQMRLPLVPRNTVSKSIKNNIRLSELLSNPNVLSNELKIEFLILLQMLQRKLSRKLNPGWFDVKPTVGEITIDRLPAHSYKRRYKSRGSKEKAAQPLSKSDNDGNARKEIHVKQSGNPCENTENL

Experiments:
Test in all cases: cryo-EM structure
[1] = target: T1, SPAG16 (mouse (endogenous in mouse sperm)) (UniProt Q8K450)
T1 sequence: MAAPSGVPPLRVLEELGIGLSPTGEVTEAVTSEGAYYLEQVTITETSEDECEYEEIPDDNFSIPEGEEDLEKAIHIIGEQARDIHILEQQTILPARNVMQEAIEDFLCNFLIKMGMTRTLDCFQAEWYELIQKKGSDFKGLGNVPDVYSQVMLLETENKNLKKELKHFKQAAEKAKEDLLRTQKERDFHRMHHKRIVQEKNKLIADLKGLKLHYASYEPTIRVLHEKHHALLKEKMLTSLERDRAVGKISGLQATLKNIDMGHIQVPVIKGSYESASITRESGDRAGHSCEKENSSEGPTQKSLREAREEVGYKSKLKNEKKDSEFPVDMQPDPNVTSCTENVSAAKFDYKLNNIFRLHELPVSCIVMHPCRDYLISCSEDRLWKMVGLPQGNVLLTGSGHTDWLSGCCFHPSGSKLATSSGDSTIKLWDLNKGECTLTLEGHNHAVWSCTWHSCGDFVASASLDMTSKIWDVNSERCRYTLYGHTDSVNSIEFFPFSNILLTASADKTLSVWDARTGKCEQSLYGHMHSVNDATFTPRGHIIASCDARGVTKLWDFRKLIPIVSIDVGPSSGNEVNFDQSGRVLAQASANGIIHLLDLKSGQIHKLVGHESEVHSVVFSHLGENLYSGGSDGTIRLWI

[2] = target: HYDIN (mouse (endogenous in mouse sperm)) (UniProt Q80W93)
[3] = target: T2, sperm-associated antigen 6 (SPAG6) (mouse (endogenous in mouse sperm)) (UniProt Q9JLI7)
T2 sequence: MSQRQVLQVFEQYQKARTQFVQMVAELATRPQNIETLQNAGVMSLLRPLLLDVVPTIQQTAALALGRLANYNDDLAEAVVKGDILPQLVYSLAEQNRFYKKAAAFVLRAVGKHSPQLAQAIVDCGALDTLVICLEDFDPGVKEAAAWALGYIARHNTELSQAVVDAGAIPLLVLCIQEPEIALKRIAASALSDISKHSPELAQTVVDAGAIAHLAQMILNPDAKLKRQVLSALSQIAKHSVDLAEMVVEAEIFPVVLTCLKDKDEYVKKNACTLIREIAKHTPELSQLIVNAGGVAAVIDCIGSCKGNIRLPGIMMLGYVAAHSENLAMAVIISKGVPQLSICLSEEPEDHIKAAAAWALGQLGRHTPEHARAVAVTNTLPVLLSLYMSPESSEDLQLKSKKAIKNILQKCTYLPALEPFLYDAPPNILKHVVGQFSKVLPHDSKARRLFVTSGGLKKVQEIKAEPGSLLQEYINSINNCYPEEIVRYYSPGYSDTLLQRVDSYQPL

[4] = target: CFAP47 (mouse (endogenous in mouse sperm))
[5] = target: T2, sperm-associated antigen 6 (SPAG6) (mouse (endogenous in mouse sperm)); remark: listed apart in the source
[6] = target: SPATA4 (mouse (endogenous in mouse sperm)) (UniProt Q8K3V1)
[7] = target: CFAP65 (mouse (endogenous in mouse sperm)) (UniProt Q3V0B4)
[8] = target: HYDIN (mouse (endogenous in mouse sperm)) (UniProt Q80W93); remark: listed apart in the source

For CFAP47 (from UniProt A0A0G2JEB6 1-3184), the binding [1] was “binds” and the binding [2] was “binds”.

For SPEF2 (from UniProt Q8C9J3 1-1724), the binding [3] was “binds” and the binding [2] was “binds”.

B1: sperm-associated antigen 6 (SPAG6) (protein, UniProt Q9JLI7 1-507)
chain: MSQRQVLQVFEQYQKARTQFVQMVAELATRPQNIETLQNAGVMSLLRPLLLDVVPTIQQTAALALGRLANYNDDLAEAVVKGDILPQLVYSLAEQNRFYKKAAAFVLRAVGKHSPQLAQAIVDCGALDTLVICLEDFDPGVKEAAAWALGYIARHNTELSQAVVDAGAIPLLVLCIQEPEIALKRIAASALSDISKHSPELAQTVVDAGAIAHLAQMILNPDAKLKRQVLSALSQIAKHSVDLAEMVVEAEIFPVVLTCLKDKDEYVKKNACTLIREIAKHTPELSQLIVNAGGVAAVIDCIGSCKGNIRLPGIMMLGYVAAHSENLAMAVIISKGVPQLSICLSEEPEDHIKAAAAWALGQLGRHTPEHARAVAVTNTLPVLLSLYMSPESSEDLQLKSKKAIKNILQKCTYLPALEPFLYDAPPNILKHVVGQFSKVLPHDSKARRLFVTSGGLKKVQEIKAEPGSLLQEYINSINNCYPEEIVRYYSPGYSDTLLQRVDSYQPL
For B1, the binding [4] was “binds” and the binding [5] was “binds”.

B2: SPATA17 (protein, UniProt Q9D552 1-379)
chain: METNSNNFGELQELKDMATLAKLLARAPFLESQYYFRNRAVDSFRKFENDAAVMIQSWFRGCQVRAYMRHLNRVVTIIQKWWRSYLGRKFYQLVVEAAYYTMKMNLYNEMAVRIQRRWRGFRIRKYCFNYYYLKEYLRAVSETNDAIREALEEFAEMKEREERKVLLEREEKQKDYQARKMHYLLSTKQISGIYNSPFREHPDPWELRLQKAKPLGHQKYTAEKGKTSQSPSNWLACTSVHSFPQSESLPPISRKRCQGPFRDINEVLEQRYKPLEPTLRVAEPINHLRLAREAFKQEERMRNVQDKMFLPFSSYHKKEKYIPMIHSSSAYNSDSYGQKHFRSQDSKKWISDKDFQTVLPSFQLFSKYGKLYSKAGEIV
In the case of B2, the binding [5] is reported as “binds”.

B3: SPAG16 (natural protein)
chain: MAAPSGVPPLRVLEELGIGLSPTGEVTEAVTSEGAYYLEQVTITETSEDECEYEEIPDDNFSIPEGEEDLEKAIHIIGEQARDIHILEQQTILPARNVMQEAIEDFLCNFLIKMGMTRTLDCFQAEWYELIQKKGSDFKGLGNVPDVYSQVMLLETENKNLKKELKHFKQAAEKAKEDLLRTQKERDFHRMHHKRIVQEKNKLIADLKGLKLHYASYEPTIRVLHEKHHALLKEKMLTSLERDRAVGKISGLQATLKNIDMGHIQVPVIKGSYESASITRESGDRAGHSCEKENSSEGPTQKSLREAREEVGYKSKLKNEKKDSEFPVDMQPDPNVTSCTENVSAAKFDYKLNNIFRLHELPVSCIVMHPCRDYLISCSEDRLWKMVGLPQGNVLLTGSGHTDWLSGCCFHPSGSKLATSSGDSTIKLWDLNKGECTLTLEGHNHAVWSCTWHSCGDFVASASLDMTSKIWDVNSERCRYTLYGHTDSVNSIEFFPFSNILLTASADKTLSVWDARTGKCEQSLYGHMHSVNDATFTPRGHIIASCDARGVTKLWDFRKLIPIVSIDVGPSSGNEVNFDQSGRVLAQASANGIIHLLDLKSGQIHKLVGHESEVHSVVFSHLGENLYSGGSDGTIRLWI
For B3, the binding [6] was “binds”.

B4: KIF9 (protein, UniProt Q9WV04 1-790)
chain: MGTRKKVQAFVRVRPTDDFAHEMIKYGEDNKSIDIHLKKDTRRGVVNNQQTDWSFKLDGVLHNASQDLVYETVAKDAVSQALDGYNGTIMCYGQTGAGKTYTMTGATENYKHRGILPRALQQVFRMIEERPTHAITVRVSYLEIYNENLFDLLSTLPYVGPSVTPMTIVENPQGIFIKGLSVHLTSQEEDAFSLLFEGETNRIIASHTMNKNSSRSHCIFTIYMEAHSRTLSDEKYITSKINLVDLAGSERLSKTGSEGRVLKEATYINKSLSFLEQAIIALGDQNRDHVPFRQSKLTHALKDSLGGNCNMVLVTNIYGEAAQLDETLSSLRFASRMKLVTTEPAINEKYDAERMVKNLEKELALLKQELAIHDSLSNRTLVNYDPMDEIQIAEINSQVRRYLEGTLDEIDIINLRQIQEVFNQFRVVLSQQEQEVESALRRKYTLIDKNDFAAISAVQKVGLMDIEGNLVGEPDGQSFGLGVAPFSVKPGKKPKTKKTPKDQFSSSARKEGASSPVSGKDFDVASISKTQLIPSSKDGDLKDMLARERETSSIEPLISDSPKEELRAPRPSTPPSRTVAFEEFKNERGSEINRIFKENKSILNERKKRASETTQRINAIKQEIDETKDALNFQKSLREKQGEYENKGLMIIDEEEFLLILKLKDLKKQYRNEYQELRDLRAEIQYCQRLVDQCRHRLLMEFDIWYNESFMIPEDVQVALKLGSSIRPGMVPISRIVCLGEDDQDRFSHLQQTVLPEGLDSITFYNAKVKTDQKHNYMKTMVGLQQSHRK
B4 was tested, and the binding [7] was “binds”.

B5: MAP1S (microtubule-associated protein 1S) (protein, UniProt Q8C052 1-973)
chain: MAAVMAAPEAVEAPSSLLLLVVGGECGCPGLLAYVMEELERGVRSWEDVDPAVCSLDEQLKAFVSRHSATFSSIVKGQRSLHHRGETLETLVLLNPSDKSLCDELRNLLMDPAPHKLLVLAGPCLEETGELLLQTGGFSAHHFLQVLGDKEVQDALASAPAAPALTVSCPTFGDWALLGPVPGLQLRLNPPAQLPASEGLRAFLEYVAESLEPPSPFELLEPPAAGGFLRLARPCCYVFPGGLGDAAFFAVNGFTVLVNGGSNPKSSFWKLVRHLDRVDAVLVTHAGADSLPGLNSLLRRKLAEREAAAGPQGQHEERLRRLLSPALGVVFLNAREAASRLRGGEDEAVCARSLLRSLGIAPLPLQRGPQPSCPTVLFEKLGVGRLELFVLHPPPGDPAAPACALLVWQPAAPGDKVVRVLFPGRTPPARLLDGLQRLQHLPCLRRPVVTTHDLEAPSRANSQDSLASRDSARKEPVRGTVGSIANRSTVRREPALATRDQKKDTRSGPTQPTARDTRRSGPGVVNTKPRVSQNGPRAPVLAAPLTAPVAECPGEAENILESERPPAPSPTLSPAQSPPPTAPGNSPERLSLSPLRPEPAPDASPSATTPTLTTPSLPAELGSPHSTEVDESLSVSFEQVLPAGDPGLSLPLRLARRSTSPHDVDLCLVSPCEFSHRKPPPPASPGSSDSSARSQERPPETPPTSVSESLPTLSDSDPVPVADSDDDAGSESAARDPPPTPRVPPPLPDVPGICMVDPEALPPRARQPLNTTNPSRSRKAPARPSSASATPRAATVAAKTKGPAGDRNRPLSARSEPADRPGRVPLTRKPSVPKTVPKMASATRLSSGPSGRPAPLAAGSPVYLDLAYLPGGGAGHLDQNFFLRVRALCYVISGQGQRQEEGLRAVLDALLAGKRQWDLDLQVTLIPTFDSAVMHRWYEETHAQHQALGIRVLGSGSLVSMQDEAFPACKVEF
For B5, the binding [8] was “binds”.

B6: germ cell-less 1 (GMCL1) (natural protein)
chain: MGALSSRVLRPAGRTEQPEPTPGAGGAARRSDAGEDAGHSFCYCPGGRKRKRSSGTFCYCHPDSETDDDEDEGDEQQRLLNTPRRKKLKSTSKYIYQTLFLNGENSDIKICALGEEWSLHKIYLCQSGYFSSMFSGSWKESSMNIIELEIPDQNIDIEALQVAFGSLYRDDVLIKPSRVVAILAAACMLQLDGLIQQCGETMKETISVRTVCGYYTSAGTYGLDSVKKKCLEWLLNNLMTHQSVELFKELSINVMKQLIGSSNLFVMQVEMDVYTALKKWMFLQLVPSWNGSLKQLLTETDVWFSKWKKDFEGTTFLETEQGKPFAPVFRHLRLQYIISDLASARIIEQDSLVPSEWLAAVYKQQWLAMLRAEQDSEVGPQEINKEELEGNSMRCGRKLAKDGEYCWRWTGFNFGFDLLVTYTNRYIIFKRNTLNQPCSGSVSLQPRRSIAFRLRLASFDSSGKLICSRATGYQILTLEKDQEQVVMNLDSRLLIFPLYICCNFLYISPEKRTESNRHPENPGH
With B6 the binding [4] was “binds”.
